Measurements taken from PubChem BioAssay AID264 (DTP/NCI, 2004).
The list is a part of this screen's results and no random one: it gathers tests that were run many times, whatever their T/C, doses with no T/C, and many T/C values between a quarter and a half above the control. Further doses and runs are listed elsewhere. T/C is the treated group as % of the vehicle group. Schedules are NCI's codes, taken here to give the interval after Q, in days (D) or hours (H), and the number of doses after X. Some T/C values are followed by the survivors on the day toxicity was checked, most often the fifth; without a count, all were alive then. Some doses were run more than once; the values are given in rising order. Some entries give survivors of the animals treated and no T/C: the source holds a T/C of zero for them, seemingly a mark for toxic or unscored doses. Counts of survivors are from the toxicity check (mostly the fifth day) where no day follows; animals may have died later.

Tested on: nude mice, LX-1 lung xenograft intrarenal, tumor weight T/C
Assay: NCI In Vivo Anticancer Drug Screen. Data for tumor model Human Lung LX-1 Xenograft (intrarenal inoculation) in NU/NU Swiss (nude) mice
Conditions: T/C endpoint: mean tumor weight change, higher T/C = larger tumour; for T/C: evaluated on day 11
Summary of the method: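 Tumor-bearing mice receive test compound or vehicle; tumor size is then measured in each group. The treated value is divided by the vehicle value to give T/C.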

[1] = dose: 600.0 mg/kg/injection, schedule: Q04DX003 (sc), vehicle: saline with Tween-80
[2] = dose: 600.0 mg/kg/injection, schedule: Q04DX003 (sc), vehicle: saline
[3] = dose: 1200.0 mg/kg/injection, schedule: Q04DX003 (sc), vehicle: saline
[4] = dose: 400.0 mg/kg/injection, schedule: Q01DX010 (sc), vehicle: Klucel (hydroxypropylcellulose) (HPC)
[5] = dose: 200.0 mg/kg/injection, schedule: Q01DX010 (sc), vehicle: saline
[6] = dose: 400.0 mg/kg/injection, schedule: Q01DX010 (sc), vehicle: saline
[7] = dose: 600.0 mg/kg/injection, schedule: Q04DX003 (sc), vehicle: Klucel (hydroxypropylcellulose) (HPC)
[8] = dose: 100.0 mg/kg/injection, schedule: Q04DX003 (sc), vehicle: saline with Tween-80
[9] = dose: 400.0 mg/kg/injection, schedule: Q04DX003 (sc), vehicle: saline with Tween-80
[10] = dose: 50.0 mg/kg/injection, schedule: Q01DX010 (sc), vehicle: saline with Tween-80
[11] = dose: 100.0 mg/kg/injection, schedule: Q01DX010 (sc), vehicle: saline with Tween-80
[12] = dose: 300.0 mg/kg/injection, schedule: Q04DX003 (sc), vehicle: saline with Tween-80
[13] = dose: 150.0 mg/kg/injection, schedule: Q04DX003 (sc), vehicle: water

CCCCCCCCCCCCCC#CC(=O)O was tested, and the survivor count [1] was 3 of 6 on day 11.
CONc1ccn(C2OC(CO)C(O)C2O)c(=O)n1 (centres undefined) was tested, and the survivor count [2] was 3 of 5 on day 11, the survivor count [3] was 0 of 6 on day 11 and the survivor count (dose: 2400.0 mg/kg/injection, schedule: Q04DX003 (sc), vehicle: saline) was 2 of 6 on day 11.
For CC(=O)[O][Pb]([O]C(C)=O)([c]1ccccc1)[c]1ccccc1, the survivor count [4] was 1 of 3 on day 11.
OCC1OC(n2cnc3c(=S)nc[nH]c32)C(O)C1O (centres undefined) was tested, and the survivor count [5] was 0 of 3 on day 11, the survivor count [6] was 0 of 3 on day 11 and the survivor count (dose: 800.0 mg/kg/injection, schedule: Q01DX010 (sc), vehicle: saline) was 0 of 3 on day 11.
In the case of Cc1cc(Nc2ccc3c(c2)OCO3)c2cc3c(cc2n1)OCO3, the T/C [7] is reported as 148 % of control [5 of 6 alive on day 11].
For COC(=O)c1ccoc1, the T/C (dose: 300.0 mg/kg/injection, schedule: Q04DX003 (sc), vehicle: saline) was 136 % of control, the survivor count [2] was 1 of 6 on day 11 and the survivor count [3] was 0 of 6 on day 11.
In the case of Cc1c2ccncc2c(C)c2c1[nH]c1ccccc12, the survivor count (dose: 50.0 mg/kg/injection, schedule: Q01DX010 (sc), vehicle: saline) is reported as 0 of 3 on day 11, the survivor count (dose: 100.0 mg/kg/injection, schedule: Q01DX010 (sc), vehicle: saline) is reported as 0 of 3 on day 11 and the survivor count [5] is reported as 0 of 3 on day 11. The survivor count [6] was 0 of 2 on day 11.
C/C(=C\c1ccccc1)[N+](=O)[O-] was tested, and the survivor count [4] was 1 of 3 on day 11.
With CN=C(N)N/N=C(\c1ccccc1)c1ccc(Br)cc1 the survivor count [8] was 2 of 6 on day 11.
In the case of CC1(c2ccc(Cl)cc2)OC(=O)C(=Cc2ccc([N+](=O)[O-])s2)C(=O)O1 (centres undefined), the T/C [9] is reported as 139 % of control.
O=C1C(NCCO)=C(N2CC2)C(=O)C(NCCO)=C1N1CC1 was tested, and the survivor count (dose: 1.0 mg/kg/injection, schedule: Q04DX003 (ip), vehicle: saline) was 1 of 3 on day 11, the survivor count (dose: 3.0 mg/kg/injection, schedule: Q04DX003 (sc), vehicle: suspension in saline) was 2 of 6 on day 11 and the survivor count (dose: 6.0 mg/kg/injection, schedule: Q04DX003 (sc), vehicle: suspension in saline) was 2 of 6 on day 11. For the same compound, the survivor count (dose: 12.0 mg/kg/injection, schedule: Q04DX003 (sc), vehicle: suspension in saline) was 0 of 6 on day 11.
With CS(=O)(=O)c1ncc(Br)cn1 the survivor count [1] was 0 of 6 on day 11.
Cc1ccccc1SSc1ccccc1C was tested, and the T/C [10] was 143 % of control and the T/C [11] was 143 % of control.
With CNC(=O)n1c(N)nc(-c2ccccc2)c1-c1ccccc1 the survivor count [12] was 2 of 5 on day 11.
In the case of COC1CC(CC2CCC(C)C(C(C)C(=O)O)O2)OC2(OC(C)(C3CCC(C)(C4OC(C5OC(O)(CO)C(C)CC5C)CC4C)O3)CC2C)C1C (centres undefined), the T/C (dose: 15.0 mg/kg/injection, schedule: Q04DX003 (sc), vehicle: Klucel (hydroxypropylcellulose) (HPC)) is reported as 137 % of control.
In the case of CCCCCCCCCCCCCCCCP(=O)(OCCOCCCCCC)OCCOCCCCCC, the T/C [2] is reported as 137 % of control [4 of 6 alive on day 11].
In the case of COc1cccc2c1C(=O)c1c(O)c3c(c(O)c1C2=O)C[C@@](O)(/C(C)=N/NC(=O)c1ccccc1)C[C@@H]3OC1CC(N)C(O)C(C)O1 (some centres undefined), the survivor count (dose: 40.0 mg/kg/injection, schedule: Q04DX003 (sc), vehicle: water) is reported as 3 of 6 on day 11 and the survivor count [13] is reported as 0 of 6 on day 11.
With CCC[P+](c1ccccc1)(c1ccccc1)c1ccccc1 the survivor count [12] was 1 of 6 on day 11.
O=NN(CCF)C(=O)NC1CCCCC1 was tested, and the survivor count (dose: 25.0 mg/kg/injection, schedule: Q04DX003 (sc), vehicle: Klucel (hydroxypropylcellulose) (HPC)) was 2 of 6 on day 11 and the survivor count (dose: 50.0 mg/kg/injection, schedule: Q04DX003 (sc), vehicle: Klucel (hydroxypropylcellulose) (HPC)) was 0 of 6 on day 11.
BrCC[Se]c1ccccc1 was tested, and the T/C (dose: 400.0 mg/kg/injection, schedule: Q01DX010 (sc), vehicle: saline with Tween-80) was 135 % of control [2 of 3 alive on day 11].
For Nc1n[n+](-c2ccccc2)no1, the survivor count [13] was 2 of 6 on day 11 and the survivor count (dose: 300.0 mg/kg/injection, schedule: Q04DX003 (sc), vehicle: water) was 0 of 6 on day 11.
CC(C)NC(=O)N(CCCCBr)N=O was tested, and the survivor count [7] was 2 of 4 on day 11.
With CC(=O)Oc1c(C)[nH]ccc1=O the survivor count (dose: 1200.0 mg/kg/injection, schedule: Q04DX003 (sc), vehicle: suspension in saline) was 2 of 6 on day 11 and the survivor count (dose: 2400.0 mg/kg/injection, schedule: Q04DX003 (sc), vehicle: suspension in saline) was 0 of 6 on day 11.
Brc1ccc(C[N+]23CN4CN(CN(C4)C2)C3)cc1 was tested, and the survivor count (dose: 1200.0 mg/kg/injection, schedule: Q04DX003 (sc), vehicle: saline with Tween-80) was 1 of 6 on day 11.
For C1CCC2[N-]CC3CCCCC3[N-]CC3CCCCC3[N-]CC3CCCCC3[N-]CC2C1.[Cu] (centres undefined), the survivor count (dose: 50.0 mg/kg/injection, schedule: Q01DX010 (sc), vehicle: Klucel (hydroxypropylcellulose) (HPC)) was 0 of 3 on day 11.
With Cc1cc(NCCCCCCCNc2cc(C)nc3cc(N)ccc23)c2ccc(N)cc2n1 the T/C (dose: 12.5 mg/kg/injection, schedule: Q01DX010 (sc), vehicle: saline with Tween-80) was 59, 63, 73, 73 [2 of 2 alive on day 11], 114 % of control, the T/C (dose: 25.0 mg/kg/injection, schedule: Q01DX010 (sc), vehicle: saline with Tween-80) was 24, 40, 51 [2 of 2 alive on day 11], 54 [2 of 2 alive on day 11], 77 % of control and the T/C [10] was 2 [2 of 3 alive on day 11], 9 [2 of 3 alive on day 11], 35 % of control [5 of 6 alive on day 11]. The survivor count [10] was 2 of 6 on day 11 and 2 of 4 on day 11 and the survivor count [11] was 0 of 3 on day 11, 0 of 6 on day 11, 2 of 6 on day 11.
For CCCCCCCCCCCCCCCC(=O)OCC1OC(n2ccc(N)nc2=O)C(O)C1O (centres undefined), the T/C (dose: 50.0 mg/kg/injection, schedule: Q04DX003 (sc), vehicle: saline with Tween-80) was 130 % of control, the T/C [8] was 134 % of control and the survivor count [12] was 2 of 6 on day 11. For the same compound, the survivor count [9] was 1 of 3 on day 11 and the survivor count [1] was 0 of 6 on day 11.
With COc1cc([C@@H]2c3cc4c(c(O)c3C[C@H]3COC(=O)[C@@H]32)OCO4)cc(OC)c1O the T/C (dose: 0.5 mg/kg/injection, schedule: Q01DX010 (sc), vehicle: saline) was 141 % of control, the T/C (dose: 2.0 mg/kg/injection, schedule: Q01DX010 (sc), vehicle: saline) was 145 % of control [2 of 3 alive on day 11] and the survivor count (dose: 4.0 mg/kg/injection, schedule: Q01DX010 (sc), vehicle: saline) was 1 of 3 on day 11.
For C=C1C(=O)OCC1C(=O)O (centres undefined), the survivor count (dose: 400.0 mg/kg/injection, schedule: Q04DX003 (sc), vehicle: suspension in saline) was 1 of 6 on day 11.
With Cc1[nH]c(=O)[nH]c(=O)c1N(CCF)CCCl the T/C (dose: 10.0 mg/kg/injection, schedule: Q01DX010 (sc), vehicle: Klucel (hydroxypropylcellulose) (HPC)) was 147 % of control and the survivor count (dose: 80.0 mg/kg/injection, schedule: Q01DX010 (sc), vehicle: Klucel (hydroxypropylcellulose) (HPC)) was 0 of 3 on day 11, 0 of 6 on day 11, 1 of 6 on day 11.
With NC(=S)N/N=C/c1ccc(OC(=O)COc2ccccc2)cn1 the survivor count (dose: 2400.0 mg/kg/injection, schedule: Q04DX003 (sc), vehicle: saline with Tween-80) was 2 of 6 on day 11.
